Data taken from patent US8067021B2, “Methods and compositions for delivery of growth factor to fibrous connective tissue” (Affinergy, Inc., priority 2007, dated 2011).
For at least one compound, name, drawing or mass did not settle the structure. Where a SMILES comes first, the peptide text is derived from it. The star is where a group is joined. Biotin = O=C1N[C@H]2[C@H](CS[C@H]2CCCCC(=O)*)N1

Sequences of proteins named here, by UniProt entry; tags and fusion partners are left off. Residues count along the entry.
UniProt P01137, 30-390, species assumed: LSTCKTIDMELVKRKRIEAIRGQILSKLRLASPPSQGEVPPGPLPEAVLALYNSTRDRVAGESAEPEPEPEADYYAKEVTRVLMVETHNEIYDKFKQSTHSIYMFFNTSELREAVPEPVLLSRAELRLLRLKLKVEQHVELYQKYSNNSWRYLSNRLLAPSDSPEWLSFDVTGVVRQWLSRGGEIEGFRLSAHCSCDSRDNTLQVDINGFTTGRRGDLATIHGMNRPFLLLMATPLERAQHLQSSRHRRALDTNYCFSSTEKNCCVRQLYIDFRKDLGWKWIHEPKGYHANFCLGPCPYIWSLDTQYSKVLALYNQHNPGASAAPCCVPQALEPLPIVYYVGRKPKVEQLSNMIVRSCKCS
UniProt P01127, 82-190 limits assumed: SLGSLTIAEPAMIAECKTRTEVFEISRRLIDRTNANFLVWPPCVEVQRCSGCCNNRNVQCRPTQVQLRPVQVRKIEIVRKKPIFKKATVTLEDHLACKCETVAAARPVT

Key:
Conditions in all cases: growth factor 0.01-100 nM on immobilized biotinylated peptide, high-salt buffer-T
GDF-7 = biological target: T1, GDF-7 (Mus musculus, UniProt P43029); experiment: Binding assay: biotinylated peptide immobilized on streptavidin plate, growth factor captured, antibody/pNPP detection
T1 construct: purchased R&D SYSTEMS
T1 sequence (P43029 316-461): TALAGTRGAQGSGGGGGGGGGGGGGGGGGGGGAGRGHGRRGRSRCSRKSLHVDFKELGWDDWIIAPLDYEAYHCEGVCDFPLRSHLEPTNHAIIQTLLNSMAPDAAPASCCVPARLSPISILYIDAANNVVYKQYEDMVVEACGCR

BMP-5 = biological target: T2, BMP-5 (Homo sapiens, UniProt P22003); experiment: Binding assay: immobilized biotinylated peptide, growth factor capture
T2 sequence (P22003 317-454): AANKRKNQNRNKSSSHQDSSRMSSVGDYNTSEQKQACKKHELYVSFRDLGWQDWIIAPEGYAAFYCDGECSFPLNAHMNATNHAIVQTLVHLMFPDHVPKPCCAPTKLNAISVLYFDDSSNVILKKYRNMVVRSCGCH

BMP-6 = biological target: T3, BMP-6 (Homo sapiens, UniProt P22004); experiment: as above
T3 sequence (P22004 375-513): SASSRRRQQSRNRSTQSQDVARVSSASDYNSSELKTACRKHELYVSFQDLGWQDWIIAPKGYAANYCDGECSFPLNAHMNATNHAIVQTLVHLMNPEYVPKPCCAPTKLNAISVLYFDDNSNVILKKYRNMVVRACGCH

TGF-β1 = TGF-β1 (Homo sapiens, UniProt P01137); experiment: as above
GDF-5 = biological target: T4, GDF-5 (Homo sapiens, UniProt P43026); experiment: as above
T4 sequence (P43026 382-501): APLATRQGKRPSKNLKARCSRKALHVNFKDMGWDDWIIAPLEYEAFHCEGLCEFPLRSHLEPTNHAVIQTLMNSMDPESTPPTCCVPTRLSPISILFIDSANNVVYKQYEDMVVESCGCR

PDGF-BB = PDGF-BB (Homo sapiens, UniProt P01127); experiment: as above
BMP-2 = biological target: T5, BMP-2 (Homo sapiens, UniProt P12643); experiment: as above
T5 sequence (P12643 283-396): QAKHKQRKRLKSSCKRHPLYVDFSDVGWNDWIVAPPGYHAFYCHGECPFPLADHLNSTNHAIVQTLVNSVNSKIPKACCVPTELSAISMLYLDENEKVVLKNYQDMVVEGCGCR

TGF-β3 = biological target: T6, TGF-β3 (Homo sapiens, UniProt P10600); experiment: as above
T6 sequence (P10600 24-412): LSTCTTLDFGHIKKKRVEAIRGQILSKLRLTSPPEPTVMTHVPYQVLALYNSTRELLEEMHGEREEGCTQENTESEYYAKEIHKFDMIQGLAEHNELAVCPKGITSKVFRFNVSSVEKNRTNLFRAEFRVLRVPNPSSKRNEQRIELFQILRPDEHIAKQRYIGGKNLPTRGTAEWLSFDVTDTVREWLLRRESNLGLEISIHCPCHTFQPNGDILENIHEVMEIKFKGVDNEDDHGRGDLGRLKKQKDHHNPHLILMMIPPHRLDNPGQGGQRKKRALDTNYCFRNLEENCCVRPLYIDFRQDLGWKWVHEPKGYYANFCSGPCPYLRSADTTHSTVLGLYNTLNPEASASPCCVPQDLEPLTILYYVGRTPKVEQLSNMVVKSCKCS

| SMILES | EC50 (GDF-7) [nM] | EC50 (BMP-5) [nM] | EC50 (BMP-6) [nM] | EC50 (TGF-β1) [nM] | EC50 (GDF-5) [nM] | EC50 (PDGF-BB) [nM] | EC50 (BMP-2) [nM] | EC50 (TGF-β3) [nM] |
| --- | --- | --- | --- | --- | --- | --- | --- | --- |
| CC[C@H](C)[C@H](NC(=O)[C@H](CCC(=O)O)NC(=O)[C@H](CCCNC(=N)N)NC(=O)[C@@H]1CCCN1C(=O)CNC(=O)[C@H](CO)NC(=O)[C@@H](N)CO)C(=O)N[C@@H](Cc1c[nH]c2ccccc12)C(=O)N[C@@H](CC(=O)O)C(=O)N[C@@H](CO)C(=O)N[C@@H](CC(C)C)C(=O)N[C@H](C(=O)NCC(=O)N[C@H](C(=O)N[C@H](C(=O)N[C@@H](CC(N)=O)C(=O)N1CCC[C@H]1C(=O)NCC(=O)N[C@@H](Cc1c[nH]c2ccccc12)C(=O)N[C@@H](CO)C(=O)N[C@@H](CCCNC(=N)N)C(=O)NCC(=O)N[C@@H](CO)C(=O)N[C@@H](CO)C(=O)NCC(=O)N[C@@H](CCCCNC(=O)CCCC[C@@H]1SC[C@@H]2NC(=O)N[C@@H]21)C(N)=O)C(C)C)C(C)C)C(C)C [SEQ ID NO: 1, ssGPREIWDSLVGVVNPGWsr] (H-SSGPREIWDSLVGVVNPGWSRGSSGK(Biotin)-NH2; N-terminus and C-terminus assumed) | < 1 | < 100 | < 10 | > 100 | < 10 | > 100 | < 10 | > 100 |
| CC(C)C[C@H](NC(=O)[C@H](C)NC(=O)[C@H](Cc1c[nH]c2ccccc12)NC(=O)CNC(=O)CNC(=O)[C@@H](NC(=O)CNC(=O)CNC(=O)[C@H](CO)NC(=O)[C@@H](N)CO)C(C)C)C(=O)N[C@@H](Cc1ccccc1)C(=O)N[C@@H](CCC(=O)O)C(=O)N[C@H](C(=O)N[C@@H](CC(C)C)C(=O)N[C@@H](CCCNC(=N)N)C(=O)NCC(=O)N[C@@H](CCCCN)C(=O)N[C@@H](CCC(=O)O)C(=O)N[C@H](C(=O)N[C@@H](CO)C(=O)N[C@@H](CCCNC(=N)N)C(=O)NCC(=O)N[C@@H](CO)C(=O)N[C@@H](CO)C(=O)NCC(=O)N[C@@H](CCCCNC(=O)CCCC[C@@H]1SC[C@@H]2NC(=O)N[C@@H]21)C(N)=O)C(C)C)[C@@H](C)O [SEQ ID NO: 2, ssGGVGGWALFETLRGKEVsr] (H-SSGGVGGWALFETLRGKEVSRGSSGK(Biotin)-NH2; N-terminus and C-terminus assumed) | < 1 | < 100 | < 10 | > 100 | < 10 | > 100 | < 10 | > 100 |
| CSCC[C@H](NC(=O)CNC(=O)[C@H](CCC(=O)O)NC(=O)[C@H](Cc1c[nH]c2ccccc12)NC(=O)[C@H](CO)NC(=O)[C@H](CCCNC(=N)N)NC(=O)[C@H](CC(C)C)NC(=O)[C@H](C)NC(=O)[C@H](Cc1c[nH]c2ccccc12)NC(=O)[C@H](CCC(=O)O)NC(=O)[C@H](C)NC(=O)[C@@H](NC(=O)[C@H](CO)NC(=O)[C@@H](N)CO)C(C)C)C(=O)N[C@@H](CCCNC(=N)N)C(=O)N[C@H](C(=O)NCC(=O)N[C@@H](CCC(=O)O)C(=O)N[C@@H](C)C(=O)N[C@@H](CO)C(=O)N[C@@H](CCCNC(=N)N)C(=O)NCC(=O)N[C@@H](CO)C(=O)N[C@@H](CO)C(=O)NCC(=O)N[C@@H](CCCCNC(=O)CCCC[C@@H]1SC[C@@H]2NC(=O)N[C@@H]21)C(N)=O)C(C)C [SEQ ID NO: 3, ssVAEWALRSWEGMRVGEAsr] (H-SSVAEWALRSWEGMRVGEASRGSSGK(Biotin)-NH2; N-terminus and C-terminus assumed) | < 1 | < 100 | < 10 | > 100 | < 10 | > 100 | < 10 | > 100 |
